# Results: PubChem BioAssay AID2417 (National Center for Advancing Translational Sciences (NCATS), 2010)
# Where “and” joins values, the source holds several entries; their conditions need not be identical. Equal entries are not always repeated. Out of some 140,000 compounds screened, about 4,300 (3.1%) were called active. The inconclusive results got no clear call from the source; some entries with a clear call stand among them for comparison.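 How the source made its calls: active means readout at or below -70, meaning at least 70% loss of cells showing the perinucleolar compartment, a nuclear body marking cancer cells; inconclusive means readout between -30 and a set limit; inactive means the rest.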
# Test: High Content Assay for Compounds that inhibit the Assembly of the Perinucleolar Compartment;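 further: plate controls were DMSO wells for no effect and camptothecin positive control wells for full effect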
# Conditions: PC3M PTB-GFP, PNC prevalence imaging, 16 h; at 10 µM; stronger effect = lower value
# How it was run: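 Read-out is percentage of cells bearing a perinucleolar compartment, from automated 20x imaging of fixed, Hoechst-stained PC3M PTB-GFP cells. Cells were seeded 4 h, then exposed 16 h to compound (23 nl of library stock) in duplicate plates.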
row,SMILES,"activity change (PNC), negative = inhibition"
1,Cc1cc(C)cc(Oc2ccccc2/C=N\O)c1,inconclusive: -57.6%
2,COc1cccc(CC(NC(C)=O)C(=O)NC2CCN(c3nc(C)cc(C)c3C#N)CC2)c1OC (stereo not drawn),inconclusive: -59.9%
3,C/C(=N\N=C(N)N)c1cccc([N+](=O)[O-])c1,inactive: -23.7%
4,CN(C)C(=O)CN(c1ccc2c(c1)OCO2)S(C)(=O)=O,active: -106%
5,O=C(NNc1nc2cc3c(cc2s1)OCO3)c1ccc(F)cc1,active: -119%
6,O=C(NC(NNc1ccc([N+](=O)[O-])cc1)(C(F)(F)F)C(F)(F)F)c1ccc(Cl)cc1,active: -82.4%
7,CCCC(C)NC(=O)c1ccc2[nH]c3c(c2c1)CC(C)CC3 (stereo not drawn),inactive: 23.4%
8,O=C1c2ccccc2C(Nc2cccnc2)N1Cc1ccccc1Cl (stereo not drawn),inconclusive: -52.8%
9,CCOC(=O)Cn1c(-c2nonc2NC(=O)c2ccccc2F)nc2ccccc21,active: -108%
10,COc1ccc(OC)c(-c2cc(C(=O)Nc3cc(C)on3)no2)c1,inconclusive: -35.6%
11,COc1cc(CN2CC(=O)N(c3ccc(C)cc3)C2=S)cc(OC)c1OC,inconclusive: -32.2%
12,CC(C)(C)C(=O)C(CO)(Oc1ccc(Cl)cc1)n1cncn1 (stereo not drawn),inconclusive: -58.5%
13,Cc1ccc(/C=N/NC(=O)c2ccncc2)o1,inactive: -2.99%
14,COc1ccc(/C=N\N=C2/SC(CC(=O)O)C(=O)N2c2ccc(O)cc2)cc1OC (stereo not drawn),inconclusive: -30.3%
15,Cc1cc(C)n(/N=C/c2ccco2)c(=O)c1C#N,inactive: -7.09%
16,CCOC(=O)c1[nH]c2ccccc2c1NC(=O)CCN1CC(C)OC(C)C1 (stereo not drawn),inactive: 25.5%
17,O=C1NC(=O)C(c2ccccc2)(c2ccccc2)N1,inactive: 30.3% and inactive: 1.42% and inconclusive: -33.5%
18,COCCNc1nc(SCC(=O)N2CCN(c3ccccc3OC)CC2)nc2ccccc12,inactive: -20.2%
19,CN1CCN(Cc2c(O)c(Cl)cc3c(-c4ccccc4)cc(=O)oc23)CC1,inactive: 22.9%
20,Cc1ccc(-n2c(Cc3cccs3)nnc2SCC(=O)Nc2ccc(F)c(F)c2)cc1,inactive: 20.8%

row,SMILES,"activity change (PNC), negative = inhibition"
1,COc1ccccc1NC(=O)CNC(=O)c1ccccc1C,active: -108%
2,O=C(/C=C1\NC2(CCCC2)Cc2ccccc21)N1CCOCC1,inconclusive: -53.8%
3,CCN1C(=O)C(Cc2nc3ccccc3c(=O)n2-c2ccccc2)c2ccccc21 (stereo not drawn),inconclusive: -42.4%
4,O=c1[nH]c(SCc2cccc(Cl)c2)nc2c1CCCC2,inactive: 4.38%
5,CC(C)n1c(=NC(=O)c2ccco2)c(C#N)cc2c(=O)n3ccccc3cc21,active: -82.1%
6,O=C(Nc1ccc(Cl)c([N+](=O)[O-])c1)c1cnccn1,inconclusive: -44.4%
7,O=C(O)/C(=C1\OC(=O)c2ccccc21)c1ccccc1,inconclusive: -34.1%
8,CCOc1c(OC(C)=O)ccc(/C=C/c2ccc3cccc(OC(C)=O)c3n2)c1[N+](=O)[O-],inactive: -1.89%
9,COC(=O)c1sc(NC(=O)C(C)C)c(C(=O)OC)c1C,inactive: -3.35%
10,Cc1ccc(S(=O)(=O)N2CCC(C(=O)NCc3ccncc3)CC2)cc1,inactive: 12.3%
11,Cc1ccc(C(=O)c2cncc(Br)c2)cc1,inactive: -1.12%
12,Clc1cccc(Nc2c3c(nc4ncnn24)CCC3)c1,inconclusive: -60.2%
13,Cc1ccc(C2C(C#N)=C(N)Oc3n[nH]c(-c4ccccc4)c32)o1 (stereo not drawn),inconclusive: -32.2%
14,COc1ccc2nc(C)cc(SCC(=O)NNC(=O)COc3cccc4ccccc34)c2c1,inconclusive: -34.4%
15,O=C(CSc1nc2c(c(=O)n1-c1ccc(F)cc1)SCC2)NCC1CCCO1 (stereo not drawn),inconclusive: -41.3%
16,O=C1CC(c2ccccc2)Cc2nc3ncnn3cc21 (stereo not drawn),inactive: 24.8%
17,Cc1ccc(NC(=O)C(c2ccc(Cl)cc2Cl)N2CCCC2)cc1 (stereo not drawn),inactive: 57.5%
18,COC(=O)c1ccccc1NC(=O)NCC1CCCO1 (stereo not drawn),active: -122%
19,CCC(C)C1C(C#N)=C(N)Oc2n[nH]c(-c3ccccc3)c21 (stereo not drawn),inconclusive: -59.5%
20,COc1ccc(S(=O)(=O)N(C)CC(=O)NCCC2=CCCCC2)cc1OC,inconclusive: -35.9%

row,SMILES,"activity change (PNC), negative = inhibition"
1,Cc1sc2nc(CN3CCOCC3)nc(Cl)c2c1C,inconclusive: -42.4%
2,NC(=O)/C=C\C(=O)Nc1cccc(C(F)(F)F)c1,inactive: 16.4%
3,CCOC(=O)CSc1ccc2nnc(-c3cccnc3)n2n1,inconclusive: -79.8%
4,CCn1c(=O)n(CC(=O)NCc2ccccc2OC)c(=O)c2ccccc21,inconclusive: -55.8%
5,O=C(CN1N=C(c2ccccc2)CCC1=O)NCCN1CCc2ccccc2C1,inconclusive: -42.4%
6,CCOc1ccc(S(=O)(=O)N2CCN(c3ccccc3OC)CC2)c2cccnc12,inconclusive: -34.5%
7,CC(C)(C)c1ccc(OCCN2CCCC2)cc1,inconclusive: -32.3%
8,Cc1nn2c(-c3cccnc3)ccnc2c1-c1ccccc1,inactive: -21.6%
9,CCn1c(SCc2nc3ccccc3c(=O)[nH]2)nnc1-c1cccnc1,inconclusive: -68.9%
10,COc1ccccc1NC(=O)Nc1ccc(Br)cn1,inconclusive: -67.7%
11,COc1cccc(C(=O)Cn2c(N3CCCCC3)nc3c2c(=O)n(C)c(=O)n3C)c1,inconclusive: -44.3%
12,CN(C)c1ccc(C(CNS(=O)(=O)c2ccc3ccccc3c2)c2c[nH]c3ccccc23)cc1 (stereo not drawn),inconclusive: -53%
13,Cc1cc(OCCOc2cccc3cccnc23)cc(C)c1Cl,inconclusive: -40.1%
14,COc1cccc(-c2nc(N3CC(C)CC(C)C3)c3ccccc3n2)c1O (stereo not drawn),inconclusive: -41.8%
15,CCCCC(=O)N/N=C/c1ccc(N2CCOCC2)c([N+](=O)[O-])c1,inactive: -4.31%
16,CCOC(=O)C1=C(c2ccccc2)O/C(=C(/C#N)C(F)(F)F)S1,inactive: -5.65%
17,O=C(COC(=O)c1cccc2c1C(=O)c1ccccc1C2=O)NC1CCCCC1,inconclusive: -79.7%
18,C/C=C/COc1nc2c(c(=O)n(C)c(=O)n2C)n1C,active: -100%

# Single entries from the list.
# Value for O=C(CN1N=C(c2ccccc2)CCC1=O)NCCN1CCc2ccccc2C1 under activity change (PNC), negative = inhibition: inconclusive: -42.4%
# Value for Cc1ccc(/C=N/NC(=O)c2ccncc2)o1 under activity change (PNC), negative = inhibition: inactive: -2.99%
# Value for CCOc1ccc(S(=O)(=O)N2CCN(c3ccccc3OC)CC2)c2cccnc12 under activity change (PNC), negative = inhibition: inconclusive: -34.5%
# Value for O=c1[nH]c(SCc2cccc(Cl)c2)nc2c1CCCC2 under activity change (PNC), negative = inhibition: inactive: 4.38%
